## Library screen at single concentrations

Data taken from ChEMBL document CHEMBL3988442, “University of Dundee, Small-Polar-MMV Screening Library” (2021).

A: 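Growth of Mycobacterium tuberculosis over 3 days (7H9 medium with glucose and tyloxapol); the read-out is not stated. Concentration: 50 µM. Direction is inferred from retests: higher values go with more growth inhibition. About 69,000 compounds were tested under these conditions; 1.1% (about 760) showed 50% or more at least once.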
B: 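Whole-cell growth test on Mycobacterium tuberculosis, read after 4 days in a medium based on cholesterol and the lipid DPPC; the read-out is not stated. Concentration: 50 µM. The record gives no direction; compounds that gave an IC50 in retests scored well above the rest, so higher reads as more growth inhibition. Size under these conditions: about 69,000 compounds, about 370 of them at 50% or above in at least one test.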

Results are given as percent effect. The controls that fix the scale are not given in the record; negative values are as filed. Compounds were drawn at random from those tested, without regard to their results. Two or more numbers in one place are separate tests of the same structure; such repeats can differ widely.

compound,A,B
CC(=O)NCCc1ccc(S(=O)(=O)Nc2cc(F)ccc2C)s1,16.08,-1.971
c1cnc(Nc2cncc(C3CCCN(c4cnccn4)C3)n2)nc1 (centres unmarked),8.342,17.93
O=C(O)C(F)(F)F.O=C(O)C(F)(F)F.[H][C@@]12CCN(C3CCOCC3)C[C@]1([H])OCCN(Cc1cccnc1)C2=O,11.36,-13.74
CCc1ccc(C(=O)Nc2ccc(CC3CC(=O)NC3=O)cc2)s1 (centres unmarked),-22.15,8.041 & -4.353
O=C(O)C(F)(F)F.O=C1N(Cc2cccnc2)CCC12CCCN(c1ncc(F)cn1)C2 (centres unmarked),-7.608,-8.327
CCN1CCC(NC(=O)CN2CCc3c(ncn3C)C2)CC1,-36.68,-13.08
CC(c1cccc(-c2ncc(C#N)c(N)n2)c1)N(C)C (centres unmarked),21.78,-6.76
Cc1ncc2c(n1)CCCC2NC(=O)c1ccc(Cn2cccn2)cc1 (centres unmarked),14.68,6.519
Cn1cc(C(=O)N2CC[C@H](N3CCOCC3)[C@H](CCCO)C2)cn1,8.113 & -1.665,-5.158
Cc1cccc(C(=O)N2CCN(S(C)(=O)=O)[C@@H](C)C2)c1C,-29.4 & -8.399,-22.65
Cc1cccnc1CC(C)N(C)Cc1cccs1 (centres unmarked),-19.32,0.009243
CC(C)Cc1cc(C(=O)N2CCCC(n3cncn3)C2)[nH]n1 (centres unmarked),16.9,-2.886
OC(CN1CCN(Cc2nc(C3CC3)no2)CC1)c1ccccc1 (centres unmarked),12.83,-0.3946
O=C(N[C@@H]1CCNC[C@H]1O)c1cc(F)cc(Cl)c1,-23.25,-10.88
c1csc(-c2nc(CN3CCOC(Cn4cccn4)C3)cs2)c1 (centres unmarked),0.61,7.039
Brc1cnc(NCCCOC2CCOCC2)nc1,1.651,-4.474
Cc1n[nH]c(C2CN(CC(=O)NCCc3ccsc3)CCO2)n1 (centres unmarked),-3.688 & -21.78,-28.93
O=C(O)C(F)(F)F.O=C(O)C(F)(F)F.[H][C@@]12CCN(Cc3cccnc3)[C@]1([H])CC[C@H](COCC1CCOCC1)O2,-3.528,-16.92 & 19.37
COc1cc(N2CCC3(CCCN3Cc3ccn(C)n3)CC2)ncn1.O=C(O)C(F)(F)F,-30.78 & -4.042,-1.399
[H][C@@]12CCCO[C@]1([H])[C@H](NC(=O)c1cnn(C)c1)CN2Cc1ccoc1,-21.18,-2.021
COC(=O)C1=C(C)N=C2SCC(=O)N2C1c1cnn(C)c1C (centres unmarked),-16.78,9.059
Cc1cnn(CC2CN(CCc3cccs3)CCO2)c1 (centres unmarked),-20.34,-2.691
COc1ccc(-n2cnnc2CC2CCNCC2)cc1,18.34,7.003
CNC1CCN(C2CCN(c3ccc(-c4ccco4)cc3)CC2)CC1,63.29 & 32.16,20.31
CC(C(=O)N1CCCN(c2ncccc2C#N)CC1)n1ccnc1 (centres unmarked),0.5149,-17.25
Cc1cc(-c2nccs2)nc(C2CCN(Cc3ccccn3)CC2)n1,26.15,16.4
COc1ccc(C)cc1CC(=O)NC(CC(=O)O)c1ccc(F)cc1 (centres unmarked),17.39,0.8649 & -114.1
Cn1cc(C#N)c(=O)n(CC(O)c2ccccc2F)c1=O (centres unmarked),-8.095,-1.314
O=C1NC2(CCN(C(=O)c3ccc(Cl)cc3)CC2)CC1c1ccccc1 (centres unmarked),0.2774,-6.494 & -12.73
CCCNC(=O)C(C)Nc1cccc(Oc2ccc(C#N)cn2)c1 (centres unmarked),-54.04,-39.15
CC(=O)NCCCNCc1c(C)nn(CC(C)C)c1N(C)C,-13.78,-1.075
CCCn1nnnc1CSc1nccn1Cc1ccccn1,31.43,-8
O[C@@H]1C[C@@H](c2nc(-c3ccc(F)cc3)no2)N(C2CCOCC2)C1,4.624 & -1.369,5.545
CN(C)C(=O)C1CCN(C(=O)c2c[nH]c3cc(Cl)ccc23)CC1,12.09,0.5882
COc1cc(CN2CCCC(Nc3cccc(F)c3)C2)cc(OC)c1O (centres unmarked),17.22 & 7.976,29.83
CCCC(C)NC(=O)CCN1C(=O)CCc2cc(F)ccc21 (centres unmarked),3.191,11.92
COc1cccc2c1OCC(C(=O)N1CCN(C3CCSCC3)CC1)C2 (centres unmarked),13.35,-5.628 & 11.35
O=C(O)C(F)(F)F.O=C(c1ccc2ccc(N3CCN(CC4CC4)CC3)n2c1)N1CCCO1,-5.336 & -43.12,-14.37
Cc1c[nH]nc1C1CCCCN1C(=O)CCn1nccc1C (centres unmarked),29.38,4.145
CCC(=O)N1Cc2nnc(C3CCOCC3)n2C(Cc2c[nH]cn2)C1 (centres unmarked),3.498,0.7067
Cc1cc(CN2CCN(C(=O)NCc3ccco3)CC2)no1,-11.67,2.019
O=C(O)C(F)(F)F.[H][C@]12CCC(=O)N(c3cccnc3)[C@@]1([H])CCN2C(=O)c1cnc(C)cn1,4.068,-21.81 & -7.82
CC(NC(=O)CCc1cccc(OC2CCCC2)c1)c1nncn1C (centres unmarked),20.69,4.377
CCn1ccc(-c2nnc(SCC(=O)NCC(C)C)n2CC)n1,13.29 & -1.072,-1.579
CN(Cc1ccco1)Cc1cnc2n1CCN(c1ncccn1)CC2.O=C(O)C(F)(F)F,-7.269 & -17.73,4.241
O=C(CCn1cnc2cc(F)c(F)cc21)N1CCN(C2CC2)CC1,13.99,10.98
Cc1cc(=O)n2nc(Oc3cc(Cl)cc(Cl)c3)sc2n1,-2.543,-3.997
CN(C)c1ccc(NC(=O)c2ccnn2C)nc1,4.344,7.417
NC(=O)CN1CCC(c2noc3cc(F)ccc23)CC1,-45.51,-54.88 & -68.19
CN1CCOCC12CCN(Cc1nccs1)CC2,-3.259 & -0.8618,-7.741
CCn1cc2c(n1)CN(S(=O)(=O)c1cn(C)cn1)CC2COC.O=C(O)C(F)(F)F (centres unmarked),5.88 & -2.152,-1.958
O=C(O)C(F)(F)F.O=C(O)C(F)(F)F.[H][C@@]12COC[C@]1(COCc1ccncc1)CN(CC1CCC1)C2,15.69,-0.1851
CC(=O)c1cc(CN2CCCC2c2nc3ccc(C)cc3[nH]2)cs1 (centres unmarked),-0.9632,4.642 & 7.156
O=C(NCC(F)(F)F)c1ccc(-n2cccn2)nn1,5.284,3.801
COCCN(C)C[C@@H]1CN(C(=O)c2c(F)ccc(OC)c2F)C[C@@H]1CO,-34.94,1.719 & -39.18
CCn1ncc2c1C(COCC1CC1)N(Cc1ccccn1)CC2.O=C(O)C(F)(F)F.O=C(O)C(F)(F)F (centres unmarked),-7.073 & -2.145,-12.24
COC(=O)C1CCN(c2cncc(-n3nc(C)cc3C)n2)CC1,34.21,39.6 & 22.52
Cc1nn(C(C)C)c(C)c1S(=O)(=O)Nc1cccc(F)c1,21.56,0.8897
O=C(CN1CCCNC1=O)Nc1ccccc1C(=O)C1CCCC1,17.9,-8.257
CCc1ccc(CN2CCc3c(nnn3C)C2COC)cc1.O=C(O)C(F)(F)F (centres unmarked),-6.436 & 29.91,17.55
CCc1nc(NS(=O)(=O)c2ccc(C)cc2Cl)no1,-2.365,8.761
Cc1ccc(-c2noc([C@@H]3C[C@H](NC(=O)NC(C)C)CN3C)n2)cc1,-0.2069 & -2.005,-12.92
C[C@H](NC(=O)OC(C)(C)C)c1nnc(S(=O)(=O)Cc2cccc(F)c2)o1,25.33,20.09
CC[C@H]1CN(C(=O)c2cccc(-n3cnnc3)n2)CC[C@@]1(C)O,-4.797,-29.95
CCN(CCC(=O)OC)C(=O)c1cccc(Cn2nc(C)cc2C)c1,-12.88,3.995
CCC(CO)NCc1ccc(-c2ccccc2)o1.Cl (centres unmarked),5.24 & -27.75,-19.54
COc1cc(-c2nc(C3CC3)nn2-c2ccnc(C)c2)nc(OC)n1,12.19,-1.986
CCc1nc(CN2CCN(C(=O)Cc3c(C)noc3C)CC2)cs1,-3.814,8.725
CC(O)CN1CCN(C(=O)c2cccc3[nH]ncc23)CC1 (centres unmarked),0.4881,12.47

The last 7 entries again:

compound,A,B
C[C@H](NC(=O)OC(C)(C)C)c1nnc(S(=O)(=O)Cc2cccc(F)c2)o1,25.33,20.09
CC[C@H]1CN(C(=O)c2cccc(-n3cnnc3)n2)CC[C@@]1(C)O,-4.797,-29.95
CCN(CCC(=O)OC)C(=O)c1cccc(Cn2nc(C)cc2C)c1,-12.88,3.995
CCC(CO)NCc1ccc(-c2ccccc2)o1.Cl (centres unmarked),5.24 & -27.75,-19.54
COc1cc(-c2nc(C3CC3)nn2-c2ccnc(C)c2)nc(OC)n1,12.19,-1.986
CCc1nc(CN2CCN(C(=O)Cc3c(C)noc3C)CC2)cs1,-3.814,8.725
CC(O)CN1CCN(C(=O)c2cccc3[nH]ncc23)CC1 (centres unmarked),0.4881,12.47